Measured values published in patent US20220275417A1.
Results are given in words; binding and its absence hold for the method and conditions named. Some entries that bind do so weakly or less than the wild type. Tags and fused reporters may be left off the sequences shown.

Target: CD4 on the surface of HEK293 cells transfected with pCAGGS-CD4-myc (UniProt P01730)
Experiment: immunofluorescence staining of fixed CD4-expressing HEK293 cells, anti-FLAG-AF488 secondary

B1: anti-CD4-FLAG-barcode 1 (VHH)
VHH: EVQLVESGGGSVQPGGSLTLSCGTSGRTFNVMGWFRQAPGKEREFVAAVRWSSTGIYYTQYADSVKSRFTISRDNAKNTVYLEMNSLKPEDTAVYYCAADTYNSNPARWDGYDFRGQGTQVTVSS
binding: binds
